Data from patent US11225504B2, “Functional polypeptide and its application thereof in preparing medicament for preventing and treating pulmonary fibrosis” (Guangdong Medical University, priority 2017, dated 2022).
Part of at least one peptide drawing is inferred or uncertain, most often the ends. Residues, ends and D or L forms follow the SMILES beside them.

Tested on: bleomycin-induced pulmonary fibrosis
Assay: Prevention and treatment of pulmonary fibrosis IPF experiment (bleomycin-induced, mice)
Type: in vivo, C57 mice
Conditions: for GSH-PX (plasma) / HYP (lung tissue) / MDA (plasma) / T-SOD (plasma): mean ± SD
Method: (1) Animals: SPF grade C57 mice, 22 g±2 g, 60 mice, females. The mice was divided into the following groups using the random digits table: the control group, the model group, the pirfenidone group (50 mg/kg), the EZY-1 polypeptide low dose group (0.25 mg/kg), the EZY-1 polypeptide medium dose group (0.5 mg/kg), the EZY-1 polypeptide high dose group (1.0 mg/kg), 10 animals per group. (3) After the mice were anesthetized by intraperitoneal injection of 1% sodium pentobarbital at a dose of 50 mg/kg, they are fixed to the operation console on their back. Their tongues were pulled out with tweezers to expose the trachea, and 5 mg/kg Bleomycin was slowly injected under a cold light source magnifying glass. Immediately after the injection, the operation console was erected and rotated for 3 minutes to evenly distribute the drug solution in the lungs. The control group was injected with an equal volume of isotonic saline in the same way as the previous method. After 10 days, the mice were intra-gastrically administered with 0.1 ml/10 g with drugs. The control group and the model group were intra-gastrically administered with an equal volume of isotonic saline. The other groups were intra-gastrically administered with the corresponding dose of the drug for 35 days, once a day. After 35 days of drug administration, the mice were anesthetized and sacrificed, and the two intact lung tissues were isolated and weighed. The same part of the right upper lobe was taken, fixed with 4% paraformaldehyde for 48 hours, and paraffin sections were generated for Hematoxylin-Eosin (HE) staining for histopathological observations. The same part of the […] was taken for the measurement of HYP content in the lung tissue. Plasma was collected for the measurement of T-SOD, MDA, and GSH-PX levels. Statistical analysis was performed using SPSS 17.0 software. Measurement data were expressed as mean±standard deviation (x±s). Comparison of the means in multiple samples was performed by one-way ANOVA. Comparison between groups was performed by t test, with P≤0.05 indicating statistically significant differences.

[1] = 0.25 mg/kg intragastric once a day for 35 days, bleomycin mice
[2] = 0.5 mg/kg intragastric once a day for 35 days, bleomycin mice
[3] = 1.0 mg/kg intragastric once a day for 35 days, bleomycin mice

Q: What does the source list for `CC[C@H](C)[C@H](NC(=O)CNC(=O)[C@H](CC(N)=O)NC(=O)[C@H](Cc1ccc(O)cc1)NC(=O)[C@@H](NC(=O)[C@@H](NC(=O)[C@H](CS)NC(=O)[C@H](Cc1ccccc1)NC(=O)[C@H](CS)NC(=O)[C@H](C)NC(=O)CNC(=O)[C@@H](NC(=O)[C@@H](N)CCCNC(=N)N)[C@@H](C)O)C(C)C)[C@@H](C)CC)C(=O)N[C@@H](CC(C)C)C(=O)N[C@@H](Cc1ccc(O)cc1)C(=O)N1CCC[C@H]1C(=O)O` [EZY-1 polypeptide, RTGACFCVIYNGILYP] (H-RTGACFCVIYNGILYP-OH)?
A: GSH-PX (plasma) [1]: 462.56 ± 68.17 active unit; HYP (lung tissue) [1]: 67.82 ± 6.18 μg/g lung tissues Wet weight; MDA (plasma) [1]: 16.63 ± 5.02 nmal/mL; T-SOD (plasma) [1]: 128.06 ± 12.75 U/mL; GSH-PX (plasma) [2]: 612.56 ± 20.63 active unit; HYP (lung tissue) [2]: 62.80 ± 9.75 μg/g lung tissues Wet weight; MDA (plasma) [2]: 9.88 ± 0.92 nmal/mL; T-SOD (plasma) [2]: 138.04 ± 7.36 U/mL; GSH-PX (plasma) [3]: 728.83 ± 38.52 active unit; HYP (lung tissue) [3]: 58.66 ± 7.17 μg/g lung tissues Wet weight; MDA (plasma) [3]: 7.96 ± 0.69 nmal/mL; T-SOD (plasma) [3]: 140.75 ± 18.58 U/mL; pathological changes of lung tissue (HE staining, FIG. 5) (EZY-1 low, medium and high dose (0.25, 0.5, 1.0 mg/kg), pirfenidone 50 mg/kg, 35 days): reduce alveolar structural damage, reduce collagen fiber production, and inhibit the inflammatory cell infiltration; collagen fiber deposition / pulmonary fibrosis (conclusion from Table 1) (bleomycin mice): can alleviate collagen fiber deposition and inhibit pulmonary fibrosis; HYP content in lung tissue, change compared with the model group (in words, P<0.01): significantly reduced; plasma GSH-PX level, change compared with the model group (in words, P<0.01): significantly increased; plasma MDA level, change compared with the model group (in words, P<0.01): significantly reduced; plasma T-SOD level, change compared with the model group (in words, P<0.01): significantly increased
